The results in this text go back to paper PMC7859179.

The test has as its target T1, CiLV-C p29 capsid protein, split-YFP fusion for BiFC (citrus leprosis virus C (CiLV-C), strain CRD) (UniProt Q1KZ58).
T1 sequence: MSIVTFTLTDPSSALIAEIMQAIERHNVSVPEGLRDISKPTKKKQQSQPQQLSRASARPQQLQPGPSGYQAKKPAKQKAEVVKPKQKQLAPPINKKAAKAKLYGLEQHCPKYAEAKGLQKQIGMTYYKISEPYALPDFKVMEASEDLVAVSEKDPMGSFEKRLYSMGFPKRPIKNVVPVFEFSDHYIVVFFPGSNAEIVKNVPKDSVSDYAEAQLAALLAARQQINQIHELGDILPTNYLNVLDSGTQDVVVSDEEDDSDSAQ
Briefly: split reporter; BiFC with NYFP and CYFP fusions transiently co-expressed in N. benthamiana leaves; YFP fluorescence read by confocal microscopy four days post-infiltration.

These are yes or no findings as the source states them, for the method shown. Binding seen in cells or lysates may run through a third protein. A result given as binding can be weak or reduced; the word gives no strength. Where a sequence is shown, tags or fusion partners need not be part of it.

Regarding “CiLV-C MPΔ1–227, CYFP fusion for BiFC (domain or fragment)”, the binding result was “binds”.
As for “CiLV-C MPΔ228–297, CYFP fusion for BiFC (domain or fragment)”, the entry is “binds”.
